Source: PubChem BioAssay AID720504 (National Center for Advancing Translational Sciences (NCATS), 2013)
Out of some 360,000 compounds screened, about 10,000 (2.8%) were called active. Inconclusive results, whose numbers are uncertain, are shown with a selection of clear calls. Calls come from the whole dose curve; as a rule, active = well fitted inhibition curve with a large enough effect; inconclusive = small, poorly fitted or top-dose-only effect; inactive = flat fitted curve, though single readings scatter. Potencies of inconclusive entries are doubtful fits and often do not repeat.

Amino acid sequences for entries named in this document (tags omitted).
UniProt P53350, whole entry, looked up: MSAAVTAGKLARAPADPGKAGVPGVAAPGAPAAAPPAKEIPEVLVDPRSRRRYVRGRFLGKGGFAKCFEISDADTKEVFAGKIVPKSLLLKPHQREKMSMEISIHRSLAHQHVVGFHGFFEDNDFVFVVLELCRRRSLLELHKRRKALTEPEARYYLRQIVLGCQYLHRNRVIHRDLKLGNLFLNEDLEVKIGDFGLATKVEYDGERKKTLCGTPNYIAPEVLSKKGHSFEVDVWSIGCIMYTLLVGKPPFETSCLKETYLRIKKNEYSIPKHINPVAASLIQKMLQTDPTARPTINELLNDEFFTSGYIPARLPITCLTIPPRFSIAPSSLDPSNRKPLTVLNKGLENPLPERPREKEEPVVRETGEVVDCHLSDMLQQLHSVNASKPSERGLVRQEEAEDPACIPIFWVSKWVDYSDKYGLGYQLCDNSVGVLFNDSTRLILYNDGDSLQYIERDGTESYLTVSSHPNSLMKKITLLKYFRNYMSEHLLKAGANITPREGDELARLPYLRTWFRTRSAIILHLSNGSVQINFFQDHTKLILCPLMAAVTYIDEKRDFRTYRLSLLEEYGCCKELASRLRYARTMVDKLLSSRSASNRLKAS

These molecules were tested against Serine/threonine-protein kinase PLK1 (Homo sapiens) (UniProt P53350) (assay: qHTS for Inhibitors of PLK1-PDB (polo-like kinase 1 - polo-box domain): Primary Screen). Conditions: Plk1 PBD binding of FITC phosphopeptide, fluorescence polarization.
% is set by controls: 0 for no effect and ±100 for the full control effect; potency is the fitted concentration of half-maximal effect.
Note: nearly all actives have a fitted effect of over 65% in size.
Throughout, for max response, negative = inhibition: series mostly up to about 57 µM.

Row | Compound | max response, negative = inhibition | Potency
1 | COc1ccc(NC2c3ccccc3C(=O)N2Cc2ccc3c(c2)OCO3)cc1 (stereo unspecified) | inactive: -13.9% | 
2 | O=C(/C=C/c1ccc(F)cc1)N1CCCc2ccccc21 | inconclusive: -30.5% [inhibitor] | 
3 | Cc1cccc(NC(=S)NCc2ccccn2)c1 |  | inconclusive: 23.8 µM [inhibitor, single point]
4 | COc1ccc(CCNC(=O)CSc2nc(O)cc(=O)[nH]2)cc1OC | inconclusive: -31.9% [inhibitor] | 
5 | CCOC(=O)c1ccc(NC(=O)N2CCN(C(=O)c3ccco3)CC2)cc1 |  | inconclusive: 29.9 µM [inhibitor, partial curve]
6 | Cc1ccc(S(=O)(=O)C(C#N)c2nc3ccccc3nc2OC(C)C)cc1 (stereo unspecified) |  | inconclusive: 29.9 µM [inhibitor, single point]
7 | CCS(=O)(=O)N1CCN(CC(=O)NC2CCCCC2)CC1 |  | active: 21.2 µM
8 | CCn1c(C)c2c(C)nnc(C)c2c1C | inactive: -7.07% | 
9 | Nc1nnc(CC(=O)N/N=C/c2cc([N+](=O)[O-])cc(Br)c2O)s1 |  | inconclusive: 23.8 µM [inhibitor, partial curve]
10 | CCN(CC)C(=O)C1=C(C)N(CCCN2CCCC2=O)C(=O)C(CC(=O)NC2CCCC2)C1 (stereo unspecified) | inactive: -2.57% | 
11 | CN(C)C(=S)Nc1ccc(Br)cc1Cl |  | inconclusive: 29.9 µM [inhibitor, partial curve]
12 | Cc1ccc([C@H]2C(C(=O)O)=CC[C@@H](c3ccc(Cl)cc3)N2S(=O)(=O)c2ccc(C)cc2)cc1 |  | inconclusive: 26.7 µM [inhibitor, single point]
13 | O=C1Nc2ccccc2C1=Nc1ccc(S(=O)(=O)Nc2nccs2)cc1 |  | active: 26.7 µM
14 | COc1ccc(-c2nn(-c3ccccc3)cc2C(=O)NC2CCCCC2C)cc1 (stereo unspecified) | inactive: -0.056% | 
15 | O=C(c1ccc2ncsc2c1)N1CCN(c2ccccc2Cl)CC1 | inconclusive: -30.6% [inhibitor] | 
16 | Clc1cc2cccnc2c2ccccc12 |  | inconclusive: 21.2 µM [inhibitor, partial curve]
17 | Cn1c(C(=O)NCCN2CCN(Cc3ccccc3)CC2)cc2c(=O)n(C)c3ccccc3c21 |  | inconclusive: 37.7 µM [inhibitor, single point]
18 | N#C[C@]1(S(=O)(=O)c2ccccc2)C[C@@H]2ON=C(c3cccc(Br)c3)[C@@H]2C1 |  | inconclusive: 37.7 µM [inhibitor, single point]
19 | N#Cc1c(NC(=O)c2ccco2)sc2c1CCC2 |  | active: 29.9 µM
20 | Cc1ccc2cc(C=C(C#N)C#N)c(N3CCCCC3)nc2c1 |  | inconclusive: 21.2 µM [inhibitor, single point]
21 | CCc1ccc(OCc2n[nH]c(=S)n2C(C)CCCC(C)C)cc1 (stereo unspecified) | inactive: 1.39% | 
22 | Cc1ccc(NC(=O)c2cc(C)nc3ccccc23)c(C)c1 | inactive: -15.1% | 
23 | CSc1c(C#N)c(N)nc2sc(C(=O)c3ccc(Cl)c(Cl)c3)c(N)c12 |  | inconclusive: 29.9 µM [inhibitor, partial curve]

Row | Compound | max response, negative = inhibition | Potency
24 | Cc1ccc(C)n1-c1sc2c(c1C#N)CCC(C)C2 (stereo unspecified) |  | inconclusive: 37.7 µM [inhibitor, single point]
25 | Fc1ccc(C(Nc2ccccn2)c2c[nH]c3ccccc23)cc1 (stereo unspecified) |  | active: 8.44 µM
26 | Cc1ccc(C(=O)O)cc1-c1ccc(/C=C2/NC(=O)N(c3ccccc3)C2=O)o1 |  | inconclusive: 21.2 µM [inhibitor, partial curve]
27 | O=C(COc1ccccc1)N/N=C/c1sc(=O)n(Cc2cccc(C(=O)O)c2)c1Cl |  | inconclusive: 23.8 µM [inhibitor, partial curve]
28 | Cc1nnc(N/N=C/c2ccco2)n1N | inactive: -0.647% | 
29 | Cn1c(CNC(=O)CNS(=O)(=O)c2ccccc2)cc(=O)n(C)c1=O |  | inconclusive: 23.8 µM [inhibitor, partial curve]
30 | COc1cc(NS(=O)(=O)c2ccc(NC(=S)NC(=O)C3CCCC3)cc2)nc(OC)n1 |  | inconclusive: 28.2 µM [inhibitor, partial curve]
31 | Nc1nc2ccc(NC(=O)c3ccco3)cc2s1 |  | inconclusive: 29.9 µM [inhibitor, single point]
32 | Cc1ccc(Nc2nc(-c3sc(NC(=O)c4ccccc4)nc3C)cs2)cc1 |  | inconclusive: 16.8 µM [inhibitor, single point]
33 | CC1(c2nnnn2Cc2ccccc2)CCC(=O)N1c1ccc(N2CCOCC2)cc1 (stereo unspecified) | inactive: -16.4% | 
34 | O=C(CSC1=NC2(CCCCC2)N=C1c1ccccc1)Nc1ccc2c(c1)OCCO2 | inconclusive: -32.9% [inhibitor] | 
35 | Cn1nnnc1Sc1ncnc2scc(-c3ccc(F)cc3)c12 |  | inconclusive: 29.9 µM [inhibitor, partial curve]
36 | COc1cc(Cl)cc(C2NC(=S)NC(c3ccccc3)=C2C(C)=O)c1OCC(=O)O (stereo unspecified) |  | inconclusive: 23.8 µM [inhibitor, partial curve]
37 | O=C(O)/C=C/c1ccc([N+](=O)[O-])o1 |  | inconclusive: 29.9 µM [inhibitor, partial curve]
38 | COc1cc(/C=C/C(=O)c2cccc([N+](=O)[O-])c2)cc(OC)c1OC |  | inconclusive: 21.2 µM [inhibitor, single point]
39 | Cc1ccc(-n2nc(C)c(NC(=O)CCl)c2C)cc1 | inactive: -1.35% | 
40 | COc1cc(C2c3c([nH]c(=O)[nH]c3=O)Nc3ccc4ccccc4c32)ccc1O (stereo unspecified) | inconclusive: -30.9% [inhibitor] | 
41 | Cc1ccc(S(=O)(=O)N(C)CC(=O)NNC(=O)Cc2cccc(F)c2)cc1 | inactive: -2.67% | 
42 | CCn1c(CSc2nc3ccccc3s2)nnc1SCC(=O)c1ccc(Cl)cc1 |  | active: 2.99 µM
43 | COc1ccc(NC(=S)NC(=O)CC(C)C)c(OC)c1 | inactive: -7.2% | 
44 | CC1=NOC(=O)/C1=C/c1ccc(O)c(Cl)c1 |  | inconclusive: 26.7 µM [inhibitor, partial curve]
45 | COC(=O)c1oc2c(c1C)C1(CCC2)SCCS1 |  | inconclusive: 26.7 µM [inhibitor, single point]
46 | COc1cc2c(cc1NC(=O)CSc1nnc(Cc3cccs3)n1Cc1ccco1)oc1ccccc12 |  | inconclusive: 23.8 µM [inhibitor, partial curve]

Exported with tabs: entries from further up
Row	Compound	max response, negative = inhibition	Potency
24	Cc1ccc(C)n1-c1sc2c(c1C#N)CCC(C)C2 (stereo unspecified)		inconclusive: 37.7 µM [inhibitor, single point]
25	Fc1ccc(C(Nc2ccccn2)c2c[nH]c3ccccc23)cc1 (stereo unspecified)		active: 8.44 µM
26	Cc1ccc(C(=O)O)cc1-c1ccc(/C=C2/NC(=O)N(c3ccccc3)C2=O)o1		inconclusive: 21.2 µM [inhibitor, partial curve]
27	O=C(COc1ccccc1)N/N=C/c1sc(=O)n(Cc2cccc(C(=O)O)c2)c1Cl		inconclusive: 23.8 µM [inhibitor, partial curve]
28	Cc1nnc(N/N=C/c2ccco2)n1N	inactive: -0.647%	
29	Cn1c(CNC(=O)CNS(=O)(=O)c2ccccc2)cc(=O)n(C)c1=O		inconclusive: 23.8 µM [inhibitor, partial curve]
30	COc1cc(NS(=O)(=O)c2ccc(NC(=S)NC(=O)C3CCCC3)cc2)nc(OC)n1		inconclusive: 28.2 µM [inhibitor, partial curve]
31	Nc1nc2ccc(NC(=O)c3ccco3)cc2s1		inconclusive: 29.9 µM [inhibitor, single point]
32	Cc1ccc(Nc2nc(-c3sc(NC(=O)c4ccccc4)nc3C)cs2)cc1		inconclusive: 16.8 µM [inhibitor, single point]
33	CC1(c2nnnn2Cc2ccccc2)CCC(=O)N1c1ccc(N2CCOCC2)cc1 (stereo unspecified)	inactive: -16.4%	
34	O=C(CSC1=NC2(CCCCC2)N=C1c1ccccc1)Nc1ccc2c(c1)OCCO2	inconclusive: -32.9% [inhibitor]	
35	Cn1nnnc1Sc1ncnc2scc(-c3ccc(F)cc3)c12		inconclusive: 29.9 µM [inhibitor, partial curve]
